From doi:10.1101/2021.12.20.473452
No constants are given. Whether binding was seen depends on the method and setting. Binding seen in cells or lysates may run through a third protein. Some entries that bind do so weakly or less than the wild type. For some assays here: Sequences can lack the tags named with a protein.

Protein sequences, listed by entry. Tags and fused reporters are not part of them.
UniProt Q9UHI6: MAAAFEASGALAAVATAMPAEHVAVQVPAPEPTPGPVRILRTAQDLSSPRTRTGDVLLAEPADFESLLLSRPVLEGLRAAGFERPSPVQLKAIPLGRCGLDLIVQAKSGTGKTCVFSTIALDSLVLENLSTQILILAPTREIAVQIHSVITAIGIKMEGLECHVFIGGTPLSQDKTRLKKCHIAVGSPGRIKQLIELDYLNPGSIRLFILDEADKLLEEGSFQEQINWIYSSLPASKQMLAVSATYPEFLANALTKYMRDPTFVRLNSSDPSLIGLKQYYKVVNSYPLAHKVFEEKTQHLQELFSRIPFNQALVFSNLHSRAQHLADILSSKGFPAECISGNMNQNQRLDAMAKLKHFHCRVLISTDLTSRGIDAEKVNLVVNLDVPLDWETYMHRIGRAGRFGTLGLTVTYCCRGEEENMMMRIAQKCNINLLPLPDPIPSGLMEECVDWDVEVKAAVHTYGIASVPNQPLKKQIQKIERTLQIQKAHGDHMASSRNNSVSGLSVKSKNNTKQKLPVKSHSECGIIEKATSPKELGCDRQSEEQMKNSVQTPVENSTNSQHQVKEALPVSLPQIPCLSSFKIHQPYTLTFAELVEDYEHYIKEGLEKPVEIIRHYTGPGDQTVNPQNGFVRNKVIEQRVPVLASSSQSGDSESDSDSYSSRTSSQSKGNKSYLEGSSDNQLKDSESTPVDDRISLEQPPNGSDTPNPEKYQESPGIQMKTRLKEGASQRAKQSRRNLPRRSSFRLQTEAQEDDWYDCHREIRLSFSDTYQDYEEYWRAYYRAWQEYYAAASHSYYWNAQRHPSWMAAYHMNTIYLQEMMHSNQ
UniProt O00148: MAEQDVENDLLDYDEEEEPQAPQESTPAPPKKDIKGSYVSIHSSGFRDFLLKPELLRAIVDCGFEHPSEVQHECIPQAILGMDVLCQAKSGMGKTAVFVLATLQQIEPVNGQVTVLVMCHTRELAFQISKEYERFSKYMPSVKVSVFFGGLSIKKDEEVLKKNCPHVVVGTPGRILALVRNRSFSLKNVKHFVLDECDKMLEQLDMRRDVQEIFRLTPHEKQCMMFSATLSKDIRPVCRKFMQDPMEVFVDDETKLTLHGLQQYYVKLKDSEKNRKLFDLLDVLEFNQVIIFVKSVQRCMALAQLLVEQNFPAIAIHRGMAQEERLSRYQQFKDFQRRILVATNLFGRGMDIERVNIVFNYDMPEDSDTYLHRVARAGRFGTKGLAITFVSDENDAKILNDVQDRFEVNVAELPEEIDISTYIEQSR
UniProt O00571: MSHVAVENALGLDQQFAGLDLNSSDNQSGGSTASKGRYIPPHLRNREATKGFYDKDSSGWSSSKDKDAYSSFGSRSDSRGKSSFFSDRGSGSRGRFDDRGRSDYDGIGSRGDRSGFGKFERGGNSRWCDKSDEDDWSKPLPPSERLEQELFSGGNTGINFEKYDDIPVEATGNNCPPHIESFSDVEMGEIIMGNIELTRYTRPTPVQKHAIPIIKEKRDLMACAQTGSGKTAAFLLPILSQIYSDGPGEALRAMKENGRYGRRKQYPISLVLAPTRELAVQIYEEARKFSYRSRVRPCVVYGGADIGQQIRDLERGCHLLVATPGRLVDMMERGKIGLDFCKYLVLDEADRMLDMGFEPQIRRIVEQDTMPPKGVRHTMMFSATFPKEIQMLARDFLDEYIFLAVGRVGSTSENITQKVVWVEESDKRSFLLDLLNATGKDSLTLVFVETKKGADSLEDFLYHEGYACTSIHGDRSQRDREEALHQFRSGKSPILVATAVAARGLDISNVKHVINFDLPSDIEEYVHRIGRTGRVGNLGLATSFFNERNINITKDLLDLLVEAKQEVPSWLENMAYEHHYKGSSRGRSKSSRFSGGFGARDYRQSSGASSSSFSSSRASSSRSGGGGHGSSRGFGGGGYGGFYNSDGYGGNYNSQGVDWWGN
UniProt Q9UJV9: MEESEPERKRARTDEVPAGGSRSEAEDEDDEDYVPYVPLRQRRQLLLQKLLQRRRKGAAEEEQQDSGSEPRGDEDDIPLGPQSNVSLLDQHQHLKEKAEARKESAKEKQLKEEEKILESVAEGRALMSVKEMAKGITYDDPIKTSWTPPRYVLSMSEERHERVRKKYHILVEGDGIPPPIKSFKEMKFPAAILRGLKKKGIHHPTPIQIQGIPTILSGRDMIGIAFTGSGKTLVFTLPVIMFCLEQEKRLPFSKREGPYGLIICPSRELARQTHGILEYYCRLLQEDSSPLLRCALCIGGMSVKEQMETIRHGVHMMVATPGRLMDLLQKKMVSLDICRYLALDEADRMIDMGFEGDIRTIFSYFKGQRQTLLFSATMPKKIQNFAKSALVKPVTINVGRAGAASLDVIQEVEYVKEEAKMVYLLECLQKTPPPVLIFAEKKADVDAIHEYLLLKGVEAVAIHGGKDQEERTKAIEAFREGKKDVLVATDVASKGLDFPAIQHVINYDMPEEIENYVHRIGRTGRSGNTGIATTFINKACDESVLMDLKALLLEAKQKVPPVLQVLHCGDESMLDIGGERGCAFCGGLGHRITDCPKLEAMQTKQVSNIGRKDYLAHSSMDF
UniProt P26196: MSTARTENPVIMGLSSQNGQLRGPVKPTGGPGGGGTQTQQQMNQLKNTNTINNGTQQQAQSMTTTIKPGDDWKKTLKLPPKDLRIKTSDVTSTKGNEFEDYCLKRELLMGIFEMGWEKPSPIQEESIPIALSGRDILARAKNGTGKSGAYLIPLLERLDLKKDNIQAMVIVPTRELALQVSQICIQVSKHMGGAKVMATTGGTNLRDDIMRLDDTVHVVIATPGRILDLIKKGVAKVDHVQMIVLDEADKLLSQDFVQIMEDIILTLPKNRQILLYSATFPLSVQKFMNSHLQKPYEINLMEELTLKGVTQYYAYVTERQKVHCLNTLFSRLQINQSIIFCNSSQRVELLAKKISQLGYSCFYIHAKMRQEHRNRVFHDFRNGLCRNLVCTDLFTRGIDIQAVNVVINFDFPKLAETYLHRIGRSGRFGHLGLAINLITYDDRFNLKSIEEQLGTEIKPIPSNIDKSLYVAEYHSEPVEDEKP
UniProt P68400: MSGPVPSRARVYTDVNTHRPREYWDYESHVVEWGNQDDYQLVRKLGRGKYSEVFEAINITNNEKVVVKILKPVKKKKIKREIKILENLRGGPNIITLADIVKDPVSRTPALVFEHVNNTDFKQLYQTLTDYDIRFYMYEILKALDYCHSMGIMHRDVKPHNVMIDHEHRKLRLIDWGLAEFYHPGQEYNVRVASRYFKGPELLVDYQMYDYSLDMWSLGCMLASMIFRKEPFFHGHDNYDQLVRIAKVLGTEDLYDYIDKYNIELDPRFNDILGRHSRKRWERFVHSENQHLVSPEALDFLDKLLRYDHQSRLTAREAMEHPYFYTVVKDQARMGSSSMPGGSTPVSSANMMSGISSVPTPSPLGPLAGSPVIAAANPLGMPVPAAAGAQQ
UniProt P22392: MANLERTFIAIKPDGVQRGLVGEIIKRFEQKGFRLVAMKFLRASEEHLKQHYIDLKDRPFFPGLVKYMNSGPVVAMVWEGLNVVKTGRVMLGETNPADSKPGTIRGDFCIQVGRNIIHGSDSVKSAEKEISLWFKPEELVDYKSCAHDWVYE
UniProt Q8TDD1: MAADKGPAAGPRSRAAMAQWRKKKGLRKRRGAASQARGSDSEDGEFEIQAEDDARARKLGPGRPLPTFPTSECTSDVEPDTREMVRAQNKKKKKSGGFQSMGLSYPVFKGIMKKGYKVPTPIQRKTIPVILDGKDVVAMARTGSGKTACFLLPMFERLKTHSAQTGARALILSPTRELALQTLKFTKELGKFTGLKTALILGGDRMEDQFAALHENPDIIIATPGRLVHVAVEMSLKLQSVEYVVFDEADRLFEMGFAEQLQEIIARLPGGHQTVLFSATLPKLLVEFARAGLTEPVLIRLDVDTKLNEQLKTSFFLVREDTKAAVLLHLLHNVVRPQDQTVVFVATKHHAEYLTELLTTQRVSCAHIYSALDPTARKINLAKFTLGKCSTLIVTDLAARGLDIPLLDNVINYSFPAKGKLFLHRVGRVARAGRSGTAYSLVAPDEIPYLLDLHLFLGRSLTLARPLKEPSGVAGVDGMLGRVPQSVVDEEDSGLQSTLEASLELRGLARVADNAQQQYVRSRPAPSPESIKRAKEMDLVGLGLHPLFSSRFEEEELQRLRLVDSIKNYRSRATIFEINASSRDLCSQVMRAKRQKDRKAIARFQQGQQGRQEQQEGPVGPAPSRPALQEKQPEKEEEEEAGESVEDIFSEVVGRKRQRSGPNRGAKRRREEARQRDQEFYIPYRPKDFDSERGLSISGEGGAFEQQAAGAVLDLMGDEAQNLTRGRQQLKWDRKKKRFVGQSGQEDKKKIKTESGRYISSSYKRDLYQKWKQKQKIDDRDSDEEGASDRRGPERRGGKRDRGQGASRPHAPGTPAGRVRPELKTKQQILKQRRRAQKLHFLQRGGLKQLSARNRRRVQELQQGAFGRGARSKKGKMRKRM
UniProt P49674: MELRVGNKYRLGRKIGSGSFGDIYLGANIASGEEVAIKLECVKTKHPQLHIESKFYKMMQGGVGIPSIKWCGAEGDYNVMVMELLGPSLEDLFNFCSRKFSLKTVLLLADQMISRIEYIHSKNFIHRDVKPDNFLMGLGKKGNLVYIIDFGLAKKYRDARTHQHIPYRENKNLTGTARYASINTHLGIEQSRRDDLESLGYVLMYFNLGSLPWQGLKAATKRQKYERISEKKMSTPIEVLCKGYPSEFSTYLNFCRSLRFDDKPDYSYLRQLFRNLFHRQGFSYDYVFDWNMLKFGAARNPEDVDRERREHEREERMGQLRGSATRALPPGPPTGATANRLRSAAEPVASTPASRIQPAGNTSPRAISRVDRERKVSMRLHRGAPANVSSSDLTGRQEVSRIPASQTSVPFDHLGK

Experiments:
Myc-tagged DDX20 = Myc-tagged DDX20 (UniProt Q9UHI6); test: pull-down
Myc-tagged DDX39A = Myc-tagged DDX39A (UniProt O00148); test: pull-down
Myc-tagged DDX3X = Myc-tagged DDX3X (UniProt O00571); test: pull-down
Myc-tagged DDX41 = Myc-tagged DDX41 (UniProt Q9UJV9); test: pull-down
Myc-tagged DDX50 = target: T1, Myc-tagged DDX50 (UniProt Q9BQ39); test: pull-down
T1 sequence: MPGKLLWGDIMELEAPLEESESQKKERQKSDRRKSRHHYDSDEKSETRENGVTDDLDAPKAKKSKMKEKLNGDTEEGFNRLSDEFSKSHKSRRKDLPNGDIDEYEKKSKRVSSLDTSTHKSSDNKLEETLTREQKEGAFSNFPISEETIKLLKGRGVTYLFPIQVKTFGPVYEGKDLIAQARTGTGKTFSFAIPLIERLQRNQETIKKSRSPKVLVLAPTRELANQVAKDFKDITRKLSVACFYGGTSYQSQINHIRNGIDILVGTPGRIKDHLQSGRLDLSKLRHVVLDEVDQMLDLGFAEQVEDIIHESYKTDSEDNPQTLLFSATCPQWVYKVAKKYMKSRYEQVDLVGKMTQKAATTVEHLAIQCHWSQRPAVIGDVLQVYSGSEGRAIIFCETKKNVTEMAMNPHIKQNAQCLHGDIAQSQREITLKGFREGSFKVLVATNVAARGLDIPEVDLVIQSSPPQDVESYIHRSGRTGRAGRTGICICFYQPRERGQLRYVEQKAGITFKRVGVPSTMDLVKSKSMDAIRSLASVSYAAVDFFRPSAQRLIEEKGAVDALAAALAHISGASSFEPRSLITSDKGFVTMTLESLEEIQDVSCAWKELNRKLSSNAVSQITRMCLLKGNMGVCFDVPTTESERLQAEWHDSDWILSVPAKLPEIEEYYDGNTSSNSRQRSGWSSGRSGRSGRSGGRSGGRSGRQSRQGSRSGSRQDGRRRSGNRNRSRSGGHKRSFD

Myc-tagged DDX56 = target: T2, Myc-tagged DDX56 (UniProt Q9NY93); test: pull-down
T2 sequence: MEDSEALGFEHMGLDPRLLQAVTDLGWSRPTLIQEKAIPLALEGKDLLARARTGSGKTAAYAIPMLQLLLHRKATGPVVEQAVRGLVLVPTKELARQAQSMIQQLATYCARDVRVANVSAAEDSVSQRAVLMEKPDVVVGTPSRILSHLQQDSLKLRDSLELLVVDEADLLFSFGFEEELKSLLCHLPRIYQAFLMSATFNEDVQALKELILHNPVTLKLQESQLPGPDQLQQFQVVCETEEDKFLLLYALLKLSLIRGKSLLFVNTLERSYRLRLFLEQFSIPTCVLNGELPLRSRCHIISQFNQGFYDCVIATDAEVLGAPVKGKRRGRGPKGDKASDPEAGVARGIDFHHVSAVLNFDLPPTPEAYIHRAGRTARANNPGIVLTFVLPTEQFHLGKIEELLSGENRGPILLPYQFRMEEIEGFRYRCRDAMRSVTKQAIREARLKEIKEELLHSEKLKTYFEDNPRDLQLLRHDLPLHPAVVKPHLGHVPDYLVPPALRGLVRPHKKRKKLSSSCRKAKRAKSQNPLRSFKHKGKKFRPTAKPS

Myc-tagged DDX6 = Myc-tagged DDX6 (UniProt P26196); test: pull-down
[1] = target: endogenous CK2α1 (human (endogenous in HeLa)) (UniProt P68400); test: co-IP

FLAG-NME2 (from UniProt P22392 1-152) (enzyme)
binding (Myc-tagged DDX20): no binding
binding (Myc-tagged DDX39A): no binding
binding (Myc-tagged DDX3X): no binding
binding (Myc-tagged DDX41): no binding
binding (Myc-tagged DDX50): no binding
binding (Myc-tagged DDX56): no binding
binding (Myc-tagged DDX6): no binding

endogenous DDX41 (from UniProt Q9UJV9 1-622)
binding [1]: binds

endogenous DDX54 (from UniProt Q8TDD1 1-881)
binding [1]: binds

recombinant FLAG-tagged CK1ε (from UniProt P49674 1-416) (enzyme)
binding (Myc-tagged DDX20): binds
binding (Myc-tagged DDX39A): binds
binding (Myc-tagged DDX41): binds
binding (Myc-tagged DDX50): binds
binding (Myc-tagged DDX56): binds
binding (Myc-tagged DDX6): binds

B1: endogenous DDX24 (protein, UniProt Q9GZR7 1-859)
chain: MKLKDTKSRPKQSSCGKFQTKGIKVVGKWKEVKIDPNMFADGQMDDLVCFEELTDYQLVSPAKNPSSLFSKEAPKRKAQAVSEEEEEEEGKSSSPKKKIKLKKSKNVATEGTSTQKEFEVKDPELEAQGDDMVCDDPEAGEMTSENLVQTAPKKKKNKGKKGLEPSQSTAAKVPKKAKTWIPEVHDQKADVSAWKDLFVPRPVLRALSFLGFSAPTPIQALTLAPAIRDKLDILGAAETGSGKTLAFAIPMIHAVLQWQKRNAAPPPSNTEAPPGETRTEAGAETRSPGKAEAESDALPDDTVIESEALPSDIAAEARAKTGGTVSDQALLFGDDDAGEGPSSLIREKPVPKQNENEEENLDKEQTGNLKQELDDKSATCKAYPKRPLLGLVLTPTRELAVQVKQHIDAVARFTGIKTAILVGGMSTQKQQRMLNRRPEIVVATPGRLWELIKEKHYHLRNLRQLRCLVVDEADRMVEKGHFAELSQLLEMLNDSQYNPKRQTLVFSATLTLVHQAPARILHKKHTKKMDKTAKLDLLMQKIGMRGKPKVIDLTRNEATVETLTETKIHCETDEKDFYLYYFLMQYPGRSLVFANSISCIKRLSGLLKVLDIMPLTLHACMHQKQRLRNLEQFARLEDCVLLATDVAARGLDIPKVQHVIHYQVPRTSEIYVHRSGRTARATNEGLSLMLIGPEDVINFKKIYKTLKKDEDIPLFPVQTKYMDVVKERIRLARQIEKSEYRNFQACLHNSWIEQAAAALEIELEEDMYKGGKADQQEERRRQKQMKVLKKELRHLLSQPLFTESQKTKYPTQSGKPPLLVSAPSKSESALSCLSKQKKKKTKKPKEPQPEQPQPSTSAN
binding [1]: binds

B2: endogenous DDX56 (protein, UniProt Q9NY93 1-547)
chain: MEDSEALGFEHMGLDPRLLQAVTDLGWSRPTLIQEKAIPLALEGKDLLARARTGSGKTAAYAIPMLQLLLHRKATGPVVEQAVRGLVLVPTKELARQAQSMIQQLATYCARDVRVANVSAAEDSVSQRAVLMEKPDVVVGTPSRILSHLQQDSLKLRDSLELLVVDEADLLFSFGFEEELKSLLCHLPRIYQAFLMSATFNEDVQALKELILHNPVTLKLQESQLPGPDQLQQFQVVCETEEDKFLLLYALLKLSLIRGKSLLFVNTLERSYRLRLFLEQFSIPTCVLNGELPLRSRCHIISQFNQGFYDCVIATDAEVLGAPVKGKRRGRGPKGDKASDPEAGVARGIDFHHVSAVLNFDLPPTPEAYIHRAGRTARANNPGIVLTFVLPTEQFHLGKIEELLSGENRGPILLPYQFRMEEIEGFRYRCRDAMRSVTKQAIREARLKEIKEELLHSEKLKTYFEDNPRDLQLLRHDLPLHPAVVKPHLGHVPDYLVPPALRGLVRPHKKRKKLSSSCRKAKRAKSQNPLRSFKHKGKKFRPTAKPS
binding [1]: no binding
